# Measurements published in PMC8384837.
# Positions count from the first letter of the chain named. Some of the results follow. For part of these data: At the low end of the ranking the order means little. For part of these data: Construct or isoform of the protein are uncertain.
# Key:
# Conditions in all cases: yeast three-hybrid, YBZ-1, SC-Leu-His + 0.5 mM 3-AT, 4 days
# [1] = target: T1, PUM1 PUF domain R3-THE R4-TFR C935T + R936H + Q939E + N971T + H972F + Q975R (UniProt Q14671)
# T1 sequence: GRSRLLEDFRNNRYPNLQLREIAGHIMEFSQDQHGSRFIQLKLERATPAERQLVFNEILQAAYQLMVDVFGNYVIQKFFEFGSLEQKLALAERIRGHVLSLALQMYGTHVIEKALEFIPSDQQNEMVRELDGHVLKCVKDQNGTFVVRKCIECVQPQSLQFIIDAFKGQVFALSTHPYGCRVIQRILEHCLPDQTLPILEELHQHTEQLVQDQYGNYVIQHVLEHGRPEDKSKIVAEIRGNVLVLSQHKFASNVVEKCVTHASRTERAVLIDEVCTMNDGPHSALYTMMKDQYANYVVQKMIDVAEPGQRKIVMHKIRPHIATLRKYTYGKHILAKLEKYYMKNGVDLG
# [2] = target: T2, PUM1 PUF domain R6-SWD R7-NPG N1043S + Y1044W + Q1047D + S1079N + N1080P + E1083G (Homo sapiens) (UniProt Q14671)
# T2 sequence: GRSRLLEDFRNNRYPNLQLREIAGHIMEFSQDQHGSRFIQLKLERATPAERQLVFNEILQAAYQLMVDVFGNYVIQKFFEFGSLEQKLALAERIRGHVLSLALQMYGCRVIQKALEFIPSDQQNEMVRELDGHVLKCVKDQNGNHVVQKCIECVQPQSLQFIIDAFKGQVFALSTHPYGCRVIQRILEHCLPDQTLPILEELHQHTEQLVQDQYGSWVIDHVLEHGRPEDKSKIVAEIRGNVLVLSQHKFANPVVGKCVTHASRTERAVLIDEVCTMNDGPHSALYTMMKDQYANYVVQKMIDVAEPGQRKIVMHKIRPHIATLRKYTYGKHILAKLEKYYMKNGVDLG
# [3] = target: T3, PUM1 PUF domain R3-THE R4-TFR R7-NPG C935T + R936H + Q939E + N971T + H972F + Q975R + S1079N + N1080P + E1083G (Homo sapiens) (UniProt Q14671)
# T3 sequence: T1 sequence with S252N, N253P, E256G
# [4] = target: T4, PUM1 PUF domain R5-PHQ R6-SWD C1007P + R1008H + N1043S + Y1044W + Q1047D (UniProt Q14671)
# T4 sequence: T2 sequence with C180P, R181H, N252S, P253N, G256E
# [5] = target: T5, PUM1 PUF domain R5-PHQ R6-SWD C1007P + R1008H + N1043S + Y1044W + Q1047D (Homo sapiens) (UniProt Q14671)
# T5 sequence: T2 sequence with C180P, R181H, N252S, P253N, G256E
# [6] = target: T6, PUM1 PUF domain R6-SWD R7-NPG N1043S + Y1044W + Q1047D + S1079N + N1080P + E1083G (UniProt Q14671)
# T6 sequence: T2 sequence
sequence,measurement,setting,value
GGCUAGAACUAGUGGAUCCCCCGGCGCCCGGCGGCUCGAGCCCGGGUAAGUGUUAAUCGUCUGCAUGCCGCCGGGCGCCAUGCCUGCAGGUCGACUCUAGAAAACAUG,binding signal (log2 enrichment (interaction score)),[1],-8.29
same,binding signal (log2 enrichment (interaction score)),[2],-0.77
GGCUAGAACUAGUGGAUCCCCCGGCGCCCGGCGGCUCGAGCCCGGGUAAGGGGACAUAGUCUGCAUGCCGCCGGGCGCCAUGCCUGCAGGUCGACUCUAGAAAACAUG,binding signal (log2 enrichment (interaction score)),[3],-1.32
same,binding signal (log2 enrichment (interaction score)),[4],< -7.29
GGCUAGAACUAGUGGAUCCCCCGGCGCCCGGCGGCUCGAGCCCGGGUAAGACUACGUAGUCUGCAUGCCGCCGGGCGCCAUGCCUGCAGGUCGACUCUAGAAAACAUG,binding signal (log2 enrichment (interaction score)),[3],-1.29
same,binding signal (log2 enrichment (interaction score)),[4],< -7.64
GGCUAGAACUAGUGGAUCCCCCGGCGCCCGGCGGCUCGAGCCCGGGUAAGUUUACGACGUCUGCAUGCCGCCGGGCGCCAUGCCUGCAGGUCGACUCUAGAAAACAUG,binding signal (log2 enrichment (interaction score)),[1],-6.14
same,binding signal (log2 enrichment (interaction score)),[2],-0.48
GGCUAGAACUAGUGGAUCCCCCGGCGCCCGGCGGCUCGAGCCCGGGUAAGUGGAAUAGGUCUGCAUGCCGCCGGGCGCCAUGCCUGCAGGUCGACUCUAGAAAACAUG,binding signal (log2 enrichment (interaction score)),[3],-1.49
same,binding signal (log2 enrichment (interaction score)),[5],-1.31
GGCUAGAACUAGUGGAUCCCCCGGCGCCCGGCGGCUCGAGCCCGGGUAAGUGCAGAAAGUCUGCAUGCCGCCGGGCGCCAUGCCUGCAGGUCGACUCUAGAAAACAUG,binding signal (log2 enrichment (interaction score)),[1],< -6.83
same,binding signal (log2 enrichment (interaction score)),[4],-7.37
same,binding signal (log2 enrichment (interaction score)),[6],-2.24
GGCUAGAACUAGUGGAUCCCCCGGCGCCCGGCGGCUCGAGCCCGGGUAAGCAGGGGUGGUCUGCAUGCCGCCGGGCGCCAUGCCUGCAGGUCGACUCUAGAAAACAUG,binding signal (log2 enrichment (interaction score)),[3],-1.54
GGCUAGAACUAGUGGAUCCCCCGGCGCCCGGCGGCUCGAGCCCGGGUAAGUAGAACUCGUCUGCAUGCCGCCGGGCGCCAUGCCUGCAGGUCGACUCUAGAAAACAUG,binding signal (log2 enrichment (interaction score)),[1],-7.23
same,binding signal (log2 enrichment (interaction score)),[4],-7.18
same,binding signal (log2 enrichment (interaction score)),[2],-1.25
GGCUAGAACUAGUGGAUCCCCCGGCGCCCGGCGGCUCGAGCCCGGGUAAGUCUACGUGGUCUGCAUGCCGCCGGGCGCCAUGCCUGCAGGUCGACUCUAGAAAACAUG,binding signal (log2 enrichment (interaction score)),[1],-7.09
same,binding signal (log2 enrichment (interaction score)),[2],-1.09
GGCUAGAACUAGUGGAUCCCCCGGCGCCCGGCGGCUCGAGCCCGGGUAAGCGGCGAUUGUCUGCAUGCCGCCGGGCGCCAUGCCUGCAGGUCGACUCUAGAAAACAUG,binding signal (log2 enrichment (interaction score)),[3],-0.51
same,binding signal (log2 enrichment (interaction score)),[4],-7
GGCUAGAACUAGUGGAUCCCCCGGCGCCCGGCGGCUCGAGCCCGGGUAAGUAGCGGUAGUCUGCAUGCCGCCGGGCGCCAUGCCUGCAGGUCGACUCUAGAAAACAUG,binding signal (log2 enrichment (interaction score)),[3],< -1.95
same,binding signal (log2 enrichment (interaction score)),[4],< -8.02
GGCUAGAACUAGUGGAUCCCCCGGCGCCCGGCGGCUCGAGCCCGGGUAAGUUUAUUUUGUCUGCAUGCCGCCGGGCGCCAUGCCUGCAGGUCGACUCUAGAAAACAUG,binding signal (log2 enrichment (interaction score)),[1],-7.91
same,binding signal (log2 enrichment (interaction score)),[2],-0.77
GGCUAGAACUAGUGGAUCCCCCGGCGCCCGGCGGCUCGAGCCCGGGUAAGUGGGCAUAGUCUGCAUGCCGCCGGGCGCCAUGCCUGCAGGUCGACUCUAGAAAACAUG,binding signal (log2 enrichment (interaction score)),[1],< -6.84
same,binding signal (log2 enrichment (interaction score)),[4],-8.22
same,binding signal (log2 enrichment (interaction score)),[2],-1.53
GGCUAGAACUAGUGGAUCCCCCGGCGCCCGGCGGCUCGAGCCCGGGUAAGGUUUAUUUGUCUGCAUGCCGCCGGGCGCCAUGCCUGCAGGUCGACUCUAGAAAACAUG,binding signal (log2 enrichment (interaction score)),[3],-1.3
GGCUAGAACUAGUGGAUCCCCCGGCGCCCGGCGGCUCGAGCCCGGGUAAGUUGACUUAGUCUGCAUGCCGCCGGGCGCCAUGCCUGCAGGUCGACUCUAGAAAACAUG,binding signal (log2 enrichment (interaction score)),[1],-6.6
same,binding signal (log2 enrichment (interaction score)),[4],-8.04
same,binding signal (log2 enrichment (interaction score)),[2],-0.64
GGCUAGAACUAGUGGAUCCCCCGGCGCCCGGCGGCUCGAGCCCGGGUAAGUGCAUGAGGUCUGCAUGCCGCCGGGCGCCAUGCCUGCAGGUCGACUCUAGAAAACAUG,binding signal (log2 enrichment (interaction score)),[3],< -0.23
GGCUAGAACUAGUGGAUCCCCCGGCGCCCGGCGGCUCGAGCCCGGGUAAGAUCAAAAAGUCUGCAUGCCGCCGGGCGCCAUGCCUGCAGGUCGACUCUAGAAAACAUG,binding signal (log2 enrichment (interaction score)),[3],-1.3
GGCUAGAACUAGUGGAUCCCCCGGCGCCCGGCGGCUCGAGCCCGGGUAAGGUUGGAGCGUCUGCAUGCCGCCGGGCGCCAUGCCUGCAGGUCGACUCUAGAAAACAUG,binding signal (log2 enrichment (interaction score)),[3],-0.87
GGCUAGAACUAGUGGAUCCCCCGGCGCCCGGCGGCUCGAGCCCGGGUAAGUGCAGGUAGUCUGCAUGCCGCCGGGCGCCAUGCCUGCAGGUCGACUCUAGAAAACAUG,binding signal (log2 enrichment (interaction score)),[1],-6.96
same,binding signal (log2 enrichment (interaction score)),[4],< -6.89
same,binding signal (log2 enrichment (interaction score)),[2],-1.11
GGCUAGAACUAGUGGAUCCCCCGGCGCCCGGCGGCUCGAGCCCGGGUAAGGUGAAUUAGUCUGCAUGCCGCCGGGCGCCAUGCCUGCAGGUCGACUCUAGAAAACAUG,binding signal (log2 enrichment (interaction score)),[3],-1.95

# Two entries from above, tab-delimited:
sequence	measurement	setting	value
GGCUAGAACUAGUGGAUCCCCCGGCGCCCGGCGGCUCGAGCCCGGGUAAGACUACGUAGUCUGCAUGCCGCCGGGCGCCAUGCCUGCAGGUCGACUCUAGAAAACAUG	binding signal (log2 enrichment (interaction score))	[3]	-1.29
same	binding signal (log2 enrichment (interaction score))	[4]	< -7.64
